These are yes or no findings as the source states them, for the method shown. Some binding calls cover weakened binding; strength is not graded here.
What was measured:
[1] = target: GPC3蛋白 (glypican-3 protein expressed in eukaryotic HEK293 cells) (UniProt P51654); experiment: sandwich phage ELISA: GPC3 protein captured by coated GPC3 polyclonal antibody, phage-displayed clone detected with anti-M13
[2] = target: GPC3蛋白 (glypican-3 protein expressed in eukaryotic HEK293 cells) (UniProt P51654); experiment: ELISA on coated GPC3 protein (1 μg/mL), GN1 heated for 2 h, detected with HRP anti-HA mAb, OD450

Chains of the proteins cited; added tags and fusions are not shown. Residues count along the entry.
UniProt P51654, residues 25-559: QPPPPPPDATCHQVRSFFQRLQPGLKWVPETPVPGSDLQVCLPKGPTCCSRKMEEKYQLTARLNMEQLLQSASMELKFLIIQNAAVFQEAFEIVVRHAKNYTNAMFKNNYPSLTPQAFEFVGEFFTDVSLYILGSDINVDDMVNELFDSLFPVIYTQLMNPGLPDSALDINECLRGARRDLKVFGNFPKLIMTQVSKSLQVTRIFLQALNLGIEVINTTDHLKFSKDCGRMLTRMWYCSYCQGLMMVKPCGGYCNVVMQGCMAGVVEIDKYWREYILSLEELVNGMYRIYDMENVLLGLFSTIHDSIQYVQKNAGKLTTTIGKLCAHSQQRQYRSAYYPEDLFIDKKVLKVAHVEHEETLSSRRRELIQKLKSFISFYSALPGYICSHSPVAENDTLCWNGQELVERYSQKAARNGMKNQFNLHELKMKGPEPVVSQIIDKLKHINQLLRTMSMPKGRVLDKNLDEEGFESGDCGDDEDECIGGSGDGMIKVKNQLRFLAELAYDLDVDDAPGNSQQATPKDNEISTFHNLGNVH

- binding [1]: binds
- binding [2]: binds
B1: 纳米抗体GN1 (nanobody GN1 that specifically binds GPC3 protein) (VHH, not shown: small tags and cut ends)
VHH: QVQLVESGGGLVQAGGSLRLSCAASGRTFVGSTMGWFRQAPGKEREFVARMSWLGRSTYYADSVKGRFTISRDNAKNTVYLQMNSLKPEDTAVYYCALALGYIDLARPDAVDAWGQGTLVTVSS

— patent publication CN110872351A
